The match of structure and compound is tentative.
What was measured:
DDR1 = DDR1 (Homo sapiens, UniProt Q08345); assay: LanthaScreen Europium Kinase Binding assay, DDR1; conditions: read-out: Ki DDR1; 5 nM DDR1, 20 nM Kinase Tracer 178, 1 h at rt; Ki from IC50 by Cheng-Prusoff
DDR2 = DDR2 (Homo sapiens, UniProt Q16832); assay: LanthaScreen Europium Kinase Binding assay, DDR2; conditions: read-out: Ki DDR2; 5 nM DDR2, 10 nM Kinase Tracer 178, 1 h at rt; Ki from IC50 by Cheng-Prusoff

Chains of the proteins cited; added tags and fusions are not shown. Residues count along the entry.
UniProt Q08345, 19-913 limits assumed: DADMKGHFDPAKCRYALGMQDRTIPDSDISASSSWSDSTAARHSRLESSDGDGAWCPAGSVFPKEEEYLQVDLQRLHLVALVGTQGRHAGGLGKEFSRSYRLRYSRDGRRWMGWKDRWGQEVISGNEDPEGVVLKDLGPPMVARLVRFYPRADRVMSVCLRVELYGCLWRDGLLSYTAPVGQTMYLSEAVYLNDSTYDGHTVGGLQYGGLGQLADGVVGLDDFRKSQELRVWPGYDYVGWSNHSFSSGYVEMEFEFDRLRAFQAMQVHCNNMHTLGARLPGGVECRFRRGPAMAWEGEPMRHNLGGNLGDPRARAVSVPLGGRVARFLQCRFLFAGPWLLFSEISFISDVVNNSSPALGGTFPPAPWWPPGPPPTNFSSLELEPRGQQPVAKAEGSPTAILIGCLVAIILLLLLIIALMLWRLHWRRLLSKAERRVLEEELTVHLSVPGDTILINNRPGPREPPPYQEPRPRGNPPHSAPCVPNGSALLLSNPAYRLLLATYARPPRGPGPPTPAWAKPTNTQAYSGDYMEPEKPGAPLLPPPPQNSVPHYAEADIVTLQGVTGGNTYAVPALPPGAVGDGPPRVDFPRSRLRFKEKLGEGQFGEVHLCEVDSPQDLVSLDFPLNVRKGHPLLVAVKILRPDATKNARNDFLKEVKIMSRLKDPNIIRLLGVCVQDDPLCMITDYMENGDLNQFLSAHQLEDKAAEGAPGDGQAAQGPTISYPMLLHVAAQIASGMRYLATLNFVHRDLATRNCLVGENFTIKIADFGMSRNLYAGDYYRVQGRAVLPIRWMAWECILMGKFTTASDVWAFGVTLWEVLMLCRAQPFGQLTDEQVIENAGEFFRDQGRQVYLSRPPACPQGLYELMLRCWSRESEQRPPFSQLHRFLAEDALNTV
UniProt Q16832, 22-855 limits assumed: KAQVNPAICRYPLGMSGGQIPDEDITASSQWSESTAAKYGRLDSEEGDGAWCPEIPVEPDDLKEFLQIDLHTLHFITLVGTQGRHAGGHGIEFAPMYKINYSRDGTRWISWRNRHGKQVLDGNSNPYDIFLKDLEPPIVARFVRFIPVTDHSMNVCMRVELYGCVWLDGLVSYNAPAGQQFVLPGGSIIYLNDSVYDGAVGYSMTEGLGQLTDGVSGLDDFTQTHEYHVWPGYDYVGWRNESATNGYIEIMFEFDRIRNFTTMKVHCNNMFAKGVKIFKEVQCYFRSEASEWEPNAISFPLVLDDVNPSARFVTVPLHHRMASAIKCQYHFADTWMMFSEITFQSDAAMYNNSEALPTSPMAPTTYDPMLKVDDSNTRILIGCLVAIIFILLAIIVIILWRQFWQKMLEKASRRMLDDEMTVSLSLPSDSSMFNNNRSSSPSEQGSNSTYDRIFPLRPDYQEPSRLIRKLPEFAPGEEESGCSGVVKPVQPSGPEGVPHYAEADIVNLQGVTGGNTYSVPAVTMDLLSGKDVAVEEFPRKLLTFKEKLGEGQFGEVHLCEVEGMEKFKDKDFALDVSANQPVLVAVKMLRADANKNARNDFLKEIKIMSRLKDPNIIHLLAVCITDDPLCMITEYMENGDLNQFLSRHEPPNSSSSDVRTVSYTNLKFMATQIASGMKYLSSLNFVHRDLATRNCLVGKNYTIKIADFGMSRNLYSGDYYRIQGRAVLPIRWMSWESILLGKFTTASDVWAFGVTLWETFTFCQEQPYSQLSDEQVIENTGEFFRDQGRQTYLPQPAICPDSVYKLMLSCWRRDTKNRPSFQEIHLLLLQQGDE

Row | SMILES | Ki (DDR1) | Ki (DDR2)
1 | CN(C(=O)Nc1cc(OC(F)(F)F)ccn1)C1CC2(C1)CN(C(=O)c1cnn3ccn(CCO)c13)C2 | < 5 nM | 25 to 100 nM
2 | O=C(Nc1cncc(C(F)(F)F)c1)NC1CC2(C1)CN(C(=O)c1ncnc3ccsc13)C2 | < 5 nM | < 5 nM
3 | O=C(CC1CC2(C1)CN(C(=O)c1cnn3ccncc13)C2)Nc1cccc(C(F)(F)F)c1 | < 5 nM | 5 to 25 nM
4 | Cn1nc(C(C)(C)C)cc1NC(=O)NC1CC2(C1)CN(C(=O)c1ncnc3ccsc13)C2 | < 5 nM | 5 to 25 nM
5 | CN(C(=O)Nc1cc(C(C)(C)C(F)(F)F)no1)C1CC2(C1)CN(C(=O)c1cnn3ccn(C)c13)C2 | < 5 nM | 5 to 25 nM
6 | O=C(Nc1cccc(C(F)(F)F)c1)NC1CC2(C1)CN(C(=O)c1cnn3cc[nH]c13)C2 | < 5 nM | < 5 nM
7 | CN(C(=O)Nc1cccc(C(F)(F)F)c1)C1CC2(C1)CN(C(=O)c1cnc3ccccn13)C2 | < 5 nM | 5 to 25 nM
8 | O=C(Nc1cccc(C(F)(F)F)c1)NC1CC2(C1)CN(C(=O)c1ncnc3[nH]ccc13)C2 | < 5 nM | < 5 nM
9 | CN(C(=O)Nc1cncc(C(F)(F)F)c1)C1CC2(C1)CN(C(=O)c1cnn3ccc(-c4cnn(C)c4)cc13)C2 | < 5 nM | 5 to 25 nM
